Laboratory results as given in PubChem BioAssay AID1259423 (Fisher Drug Discovery Resource Center, 2018).
Values joined by “and” are separate entries in the source; they are usually repeats but may differ in a detail not shown here. Equal entries are not always repeated. The list shows a part of the results. Some salts or complexes appear as unconnected parts, following the source record.

test system: Aedes aegypti neuropeptide Y-like receptor 7 (NPYLR7); assay: agonists of mosquito NPYLR7 receptor, primary screen, cell-based, Aedes aegypti, calcium fluorescence, mosquito biting behavior (AID 1259423); conditions: HEK293T NPYLR7/Galpha15, GCaMP6s calcium fluorescence; measured here: Max-Min RFU normalised activation; at 10 µM; stronger effect = higher value;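 further: 0% = vehicle and 100% = reference agonist at the receptor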

| SMILES | activation |
| --- | --- |
| O=P(Nc1ccccn1)(c1ccc(Br)cc1)c1ccc(Br)cc1 | 3.19% |
| CCOC(=O)NC(Sc1nc2ccccc2o1)C(Cl)(Cl)Cl (stereo not drawn) | 5.33% |
| CP(=O)(O)OC(c1ccccc1)C(F)(F)C(F)(F)F (stereo not drawn) | 1.65% |
| CCC(C)C(=O)N1CCCC(C(=O)OC2CN3CCC2CC3)C1 (stereo not drawn) | 2.93% |
| O=P(Nc1nccs1)(c1ccccc1)c1ccccc1 | 2.59% |
| Cc1cc(C)cc(OP(C)(=O)Nc2cc(Cl)ccc2C)c1 (stereo not drawn) | 12.8% |
| O=P1(Nc2nc(-c3ccc(F)cc3)cs2)C=C(c2ccccc2)OC(c2ccccc2)=C1 | 0.99% |
| CP(N)(=O)Oc1ccccc1F (stereo not drawn) | -4.09% |
| O=P1(Nc2nncs2)C=C(c2ccccc2)SC(c2ccccc2)=C1 | 38.6% |
| CN1CC(=O)N(C)P1(C)=S (stereo not drawn) | -0.244% |
| O=[N+]([O-])C1([N+](=O)[O-])COCOC1 | 24.1% |
| Cc1c([N+](=O)[O-])c([N+](=O)[O-])nn1CC(=O)Nc1ccc([N+](=O)[O-])cc1Cl | -8.13% |
| CN([N+](=O)[O-])C(Br)([N+](=O)[O-])[N+](=O)[O-] | -18.8% |
| O=C(c1cccc([N+](=O)[O-])c1)c1ccc([N+](=O)[O-])c([N+](=O)[O-])c1 | -6.02% |
| CN(C)c1ccc2c(c1)N1Cc3ccccc3C1=NP2(=O)c1ccccc1 (stereo not drawn) | -12.8% |
| O=C(NC1CCS(=O)(=O)C1)NP(=S)(Oc1ccccc1)Oc1ccccc1 (stereo not drawn) | -1.54% |
| CC1CCC(C(C)C)C(OP(=O)(Nc2nccs2)c2ccccc2)C1 (stereo not drawn) | -3.76% |
| O=C(OC1CN2CCC1CC2)c1ccccc1 (stereo not drawn) | -27.6% |
| CC[N+](CC)=C1SC2CS(=O)(=O)C(Br)C2(C)S1 (stereo not drawn) | -9.38% |
| Cc1ccc(NP(C)(=O)Oc2ccc(Cl)cc2)cc1 (stereo not drawn) | -9.67% |
| COc1cc(Br)c([N+](=O)[O-])nc1[N+](=O)[O-] | -5.52% |
| Cn1cc([N+](=O)[O-])nc1[N+](=O)[O-] | -1.87% |

| SMILES | activation |
| --- | --- |
| CP(=O)(Nc1cccc(F)c1)Oc1ccc(Cl)cc1 (stereo not drawn) | 0.488% |
| COP1(=S)c2c(C)nn(-c3ccccc3)c2N=C(c2ccc(F)cc2)N1C (stereo not drawn) | -6.88% |
| O=P(C=C(Cl)c1ccccc1)(C=C(Cl)c1ccccc1)Nc1nncs1 | -2.84% |
| CP(=O)(Nc1ccc(Cl)cc1Cl)Oc1ccccc1 (stereo not drawn) | 8.25% |
| O=C(O[C@H]1CN2CCC1CC2)C1NCc2ccccc2[C@@H]1c1ccccc1 (stereo partly drawn) | 0.864% |
| CC(C)(C)NC1=NCC(CI)S1 (stereo not drawn) | -5.08% |
| CCN(CC)C1=NP(=O)(c2ccccc2)NC(c2ccccc2)=C1C#N (stereo not drawn) | 0.328% |
| CCOP(OCC)N1CCOCC1 | -22% |
| O=P(O)(O)F | -9.86% and -6.36% |
| CP(=O)(Nc1ccc(F)cc1)Oc1ccc(Cl)cc1 (stereo not drawn) | 7.71% |
| Cc1c2non([O-])c-2c(C)[n+](=O)[n+]1[O-] | -0.656% |
| O=C(NC(Sc1ccncn1)C(Cl)(Cl)Cl)c1ccccc1 (stereo not drawn) | -16.3% |
| O=P(Nc1nccs1)(c1ccc(Br)cc1)c1ccc(Br)cc1 | -1.06% |
| CCOP1(=S)c2c(C)nn(-c3ccccc3)c2N=C(c2ccccc2F)N1C (stereo not drawn) | -5.56% |
| OCCSCCO | -19.8% |
| COc1ccc(OP(C)(=O)Nc2ccc(Br)cc2)cc1 (stereo not drawn) | 1.23% |
| Cc1ccc(NC(=O)COC(=O)C(C)(O)c2cccc(F)c2)c(C)c1 (stereo not drawn) | 3.68% |
| COc1cccc(C(OP(C)(=O)O)C(F)(F)F)c1 (stereo not drawn) | 9.78% |
| CP(=O)(Oc1ccc(F)cc1)OC(c1ccccc1)C(F)(F)F (stereo not drawn) | 1.13% |
| O=C(OC1CN2CCC1CC2)C1COc2ccccc2O1 (stereo not drawn) | -3.24% |
| COP(=O)(NS(=O)(=O)c1ccc(Cl)cc1)OC | -4.3% |
| CCCCOP1(=S)N=C2c3ccccc3CN2c2cc(N(C)C)ccc21 (stereo not drawn) | -5.33% |

| SMILES | activation |
| --- | --- |
| CC(C)(C)c1ccc(OP(C)(=O)O)cc1 | 10.7% |
| CCOP1(=S)c2c(C)nn(-c3ccccc3)c2N=C(c2ccccc2)N1C1CC1 (stereo not drawn) | -12% |
| CCCCOP(=O)(OCCCC)N(CC)CC | -17.5% |
| CCCCOc1ccc(NP(C)(=O)Oc2ccc(CC)cc2)cc1 (stereo not drawn) | -1.01% |
| N#Cc1ccc(-c2csc(NP3(=O)C=C(c4ccccc4)OC(c4ccccc4)=C3)n2)cc1 | 5.61% |
| CP(=O)(O)OC(c1ccccc1)C(F)(F)F (stereo not drawn) | 13.8% |
| O=C(CBr)c1ccc([N+](=O)[O-])cc1 | 1.13% |
| Nc1nonc1N=Nc1nonc1N | 1.27% |
| CP(=O)(Nc1ccccc1Br)Oc1ccccc1 (stereo not drawn) | 7.17% and -1.43% |
| CP(=O)(O)OC(c1cccc(Cl)c1)C(F)(F)F (stereo not drawn) | -5.25% |
| CP(=O)(Oc1ccccc1)OC(c1ccccc1)C(F)(F)F (stereo not drawn) | 10.3% |
| COC(=O)NC(c1ccccc1)P(=O)(Cl)Cl (stereo not drawn) | 0.913% |
| COP1(=S)c2c(C)nn(-c3ccccc3)c2N=C(c2ccccc2)N1C1CC1 (stereo not drawn) | -13.6% |
| CN(C)CCS | 0.051% |
| O=C1OC2C3CC(CC13)C2SC(CCl)C(F)(F)F (stereo not drawn) | 43.3% |
| COc1ccc2nc(NP(=O)(c3ccccc3)c3ccccc3)sc2c1 | -7.51% |
| O=P(N=c1nc(-c2ccccc2)n(-c2ccccc2)s1)(N1CCOCC1)N1CCOCC1 | 2.07% |
| CN(C)C1=C(c2c([N+](=O)[O-])cc([N+](=O)[O-])cc2[N+](=O)[O-])CCCC1 | -17.6% |
| CCOP(C)(=S)SCN(CC(=O)O)C(=O)OC (stereo not drawn) | 4.46% |
| CCCOP(=O)(OCCC)O/C(C)=C/SC#N | 15% |
| Cc1cccc(C)c1OP(C)(N)=O (stereo not drawn) | 12.4% |
| O=P1(Nc2nc(-c3ccccc3)cs2)C=C(c2ccccc2)OC(c2ccccc2)=C1 | 37.1% |

| SMILES | activation |
| --- | --- |
| CP(=O)(Nc1ccc(Br)cc1)Oc1ccccc1 (stereo not drawn) | 15.8% |
| N#CCOC(=O)C(O)(c1ccccc1)c1ccccc1 | -3.32% |
| CC(C)(C)c1ccc(OP(C)(N)=O)cc1 (stereo not drawn) | 9.16% |
| COP1(=S)N=C2c3ccccc3CN2c2cc(N(C)C)ccc21 (stereo not drawn) | -6.12% |
| COc1ccc(OP(C)(=O)Nc2cccc(F)c2)cc1 (stereo not drawn) | -0.655% |
| O=C(OC1CN2CCC1CC2)c1cccc2[nH]cnc12 (stereo not drawn) | 5.09% |
| CC(C)NC(=O)NP(=O)(Oc1ccccc1)Oc1ccccc1 | -0.591% |
| Cc1cc(C)cc(OP(C)(N)=O)c1 (stereo not drawn) | 10.3% |
| CCN(C1=NCCCS1)P(O)(=S)CC (stereo not drawn) | -9.93% |
| CP(=O)(O)OC(c1cccc(C(F)(F)F)c1)C(F)(F)F (stereo not drawn) | -4.18% |
| Nc1nonc1OCCOc1nonc1N | -5.23% |
| CC(C)N(C(=O)C12CC3CC(C1)CC(P(=O)(Cl)Cl)(C3)C2)C(C)C | 1.47% |
| CN1c2ccccc2N2CC(C)(CI)SC12 (stereo not drawn) | 6.78% |
| O=P(Nc1nccs1)(c1ccccc1)c1nc2ccccc2s1 (stereo not drawn) | 18.3% |
| CCOP1(=S)c2c(C)nn(CCC#N)c2N=C(c2ccccc2F)N1C (stereo not drawn) | -7.27% |
| Cc1ccc(NP(C)(=O)Oc2ccc(C(C)(C)C)cc2)cc1 (stereo not drawn) | 1.11% |
| COc1cccc(OP(=NC(=S)N2CCOCC2)(C(C)(C)C)C(C)(C)C)c1 | 4.6% |
| CN(C(=O)Cc1ccccc1)[C@@H]1CC[C@]2(CCCO2)C[C@H]1N1CCCC1 | 19.2% |
| Cc1ccnc(NP2(=O)C=C(c3ccccc3)OC(c3ccccc3)=C2)c1 | -6.56% |
| CCOP1(=S)c2c(C)nn(-c3ccccc3)c2N=C(c2ccc(F)cc2)N1C (stereo not drawn) | -6.16% |
| NC(=O)Nc1ccc([As](=O)(O)O)cc1 | -10.9% |
| Cc1ccc(NP(C)(=O)Oc2ccc(C(C)C)cc2)cc1C (stereo not drawn) | 8.45% |

| SMILES | activation |
| --- | --- |
| CN(CCCl)Cc1cc2cc(I)ccc2s1 | -5.92% |
| COc1cc(-n2cnnn2)ccc1-n1cnnn1 | 2% |
| CN(C(=O)Cc1ccc(Cl)c(Cl)c1)[C@@H]1CC[C@]2(CCCO2)C[C@H]1N1CCCC1 | -35.6% |
| Cc1ccc(NP(=O)(OCC(F)(F)F)OCC(F)(F)F)nc1 | 15% |
| CN1C(=O)C2C(N=C(N3CCOCC3)N2CCc2ccccc2)N(C)C1=O (stereo not drawn) | -5.82% |
| CC(=O)N(CCN(C(C)=O)[N+](=O)[O-])[N+](=O)[O-] | -14.7% |
| CCOP(=O)(NC(=NC(C)c1ccccc1)NC(C)c1ccccc1)OCC (stereo not drawn) | 0.0822% |
| CN(CCCl)Cc1cc(Cl)c(NC2=NCCN2)c(Cl)c1 | -7.34% |
| C/C1=C2N=C(/C=C3N=C(/C(C)=C4\[N-]C(C)(C5N=C1C(C)(CCC(=O)NCC(C)OP(=O)(O)OC1C(CO)OC(n6cnc7cc(C)c(C)cc76)C1O)C5CC(N)=O)C(C)(CC(N)=O)C4CCC(N)=O)C(C)(CC(N)=O)C\3CCC(N)=O)C(C)(C)C/2CCC(N)=O.[C-]#N.[Co+3] (stereo not drawn) | -8.68% |
| CP(=O)(Nc1ccc(Br)cc1)Oc1ccc(Cl)cc1 (stereo not drawn) | 12.3% |
| BrC1CSc2nc3ccccc3n2C1c1ccccc1 (stereo not drawn) | 4.95% |
| CC1CCC(C(C)C)C(OP(=O)(Nc2ccccn2)c2ccccc2)C1 (stereo not drawn) | 3.65% and -0.902% |
| Cc1n[n+]2c([nH]c1=O)SCC(Br)C2c1ccccc1 (stereo not drawn) | -6.54% |
| Cc1ccc(Cl)cc1NP(C)(=O)Oc1ccccc1 (stereo not drawn) | -12.3% |
| COc1ccc(OP(C)(=O)Nc2ccc(Cl)cc2)cc1 (stereo not drawn) | 9.49% |
| O=[N+]([O-])c1ccc(-c2csc(NP3(=O)C=C(c4ccccc4)OC(c4ccccc4)=C3)n2)cc1 | -11% |
| O=C1c2no[n+]([O-])c2C(=O)c2no[n+]([O-])c21 | -15.7% |
| Nc1cc([N+](=O)[O-])cc([N+](=O)[O-])c1O | -2.43% |
| CN1CC(=O)NC1=NP(=O)(OCc1ccccc1)OCc1ccccc1 | -1.89% |
| CCSP(=O)(c1ccccc1)c1ccccc1 | 2.96% |
